Results are given in words; binding and its absence hold for the method and conditions named. In cells and extracts the contact can be indirect. Some binding calls cover weakened binding; strength is not graded here. Tags and fused reporters may be left off the sequences shown.
Molecular target: T1, nuclear speckle-related protein 70 (NSrp70), GFP-tagged wild type (UniProt Q9H0G5)
T1 sequence: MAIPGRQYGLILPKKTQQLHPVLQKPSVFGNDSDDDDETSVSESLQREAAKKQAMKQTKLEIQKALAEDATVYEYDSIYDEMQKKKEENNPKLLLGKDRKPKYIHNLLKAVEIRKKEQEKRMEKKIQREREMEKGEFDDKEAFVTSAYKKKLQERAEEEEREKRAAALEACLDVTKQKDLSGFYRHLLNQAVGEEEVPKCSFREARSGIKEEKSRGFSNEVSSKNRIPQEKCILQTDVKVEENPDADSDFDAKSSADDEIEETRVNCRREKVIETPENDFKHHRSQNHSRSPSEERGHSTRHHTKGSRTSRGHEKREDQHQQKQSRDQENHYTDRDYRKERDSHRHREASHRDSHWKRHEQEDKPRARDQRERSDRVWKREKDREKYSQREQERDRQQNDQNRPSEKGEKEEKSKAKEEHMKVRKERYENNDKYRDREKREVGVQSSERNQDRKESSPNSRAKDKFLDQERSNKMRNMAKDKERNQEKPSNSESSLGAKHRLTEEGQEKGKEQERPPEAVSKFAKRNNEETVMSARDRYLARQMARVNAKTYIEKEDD
Test: co-IP; lysates of transfected HEK293T cells, precleared; antibodies overnight at 4°C, protein A/G agarose beads, washed with PBS; western blot

Amino acid sequences for entries named in this document (tags omitted).
UniProt Q07955: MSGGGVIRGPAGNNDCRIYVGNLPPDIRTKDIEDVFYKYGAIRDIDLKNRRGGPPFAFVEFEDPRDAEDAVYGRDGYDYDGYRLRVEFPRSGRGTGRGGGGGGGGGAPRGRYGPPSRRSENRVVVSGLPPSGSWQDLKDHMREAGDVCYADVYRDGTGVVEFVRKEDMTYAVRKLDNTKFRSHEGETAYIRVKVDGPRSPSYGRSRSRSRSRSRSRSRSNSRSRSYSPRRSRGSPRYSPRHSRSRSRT
UniProt Q13547: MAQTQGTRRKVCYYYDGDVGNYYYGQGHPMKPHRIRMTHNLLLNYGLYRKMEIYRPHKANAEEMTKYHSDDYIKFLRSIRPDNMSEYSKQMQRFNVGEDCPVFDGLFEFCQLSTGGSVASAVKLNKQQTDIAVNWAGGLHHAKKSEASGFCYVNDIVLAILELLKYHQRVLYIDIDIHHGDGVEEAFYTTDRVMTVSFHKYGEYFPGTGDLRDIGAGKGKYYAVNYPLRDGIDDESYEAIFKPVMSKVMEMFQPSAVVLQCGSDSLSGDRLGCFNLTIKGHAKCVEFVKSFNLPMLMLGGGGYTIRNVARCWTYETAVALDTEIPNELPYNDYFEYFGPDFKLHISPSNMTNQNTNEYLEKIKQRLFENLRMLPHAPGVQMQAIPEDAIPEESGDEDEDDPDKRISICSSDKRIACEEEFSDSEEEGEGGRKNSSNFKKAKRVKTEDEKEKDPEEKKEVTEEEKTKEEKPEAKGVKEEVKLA

| Substance | binding |
| --- | --- |
| SRSF1, mCherry-fused (from UniProt Q07955 1-248) | binds |
| histone deacetylase 1 (HDAC1) (from UniProt Q13547 1-482) | no binding |

From publication PMC8191771
